Test results: paper PMC7177849, “Gut Microbial Catabolites of Tryptophan Are Ligands and Agonists of the Aryl Hydrocarbon Receptor: A Detailed Characterization” (International Journal of Molecular Sciences, 2020)

Assay: Levels of tryptophan in cell culture media by HPLC
Conditions: culture medium containing 10% serum; regardless of the cell-type

**Q.** With `N[C@@H](Cc1c[nH]c2ccccc12)C(=O)O` [Trp, tryptophan] as the compound, how does the “Trp concentration in culture medium after 24 h of incubation” value read?
**A.** approx. 60 µM
